Experimental data reported in US20100297119A1.
Results are given in words; binding and its absence hold for the method and conditions named. Some results given as binding are weak or reduced against the parent protein; the word gives no strength.

Target: TNALP ectodomain monomers (papain cleavage product of sTNALP-FcD10) (human) (UniProt P05186)
Test: SEC-HPLC in non denaturing conditions after papain digestion; self-association

binding: binds
B1: TNALP ectodomain monomers (papain cleavage product of sTNALP-FcD10) (enzyme)
chain: LVPEKEKDPKYWRDQAQETLKYALELQKLNTNVAKNVIMFLGDGMGVSTVTAARILKGQLHHNPGEETRLEMDKFPFVALSKTYNTNAQVPDSAGTATAYLCGVKANEGTVGVSAATERSRCNTTQGNEVTSILRWAKDAGKSVGIVTTTRVNHATPSAAYAHSADRDWYSDNEMPPEALSQGCKDIAYQLMHNIRDIDVIMGGGRKYMYPKNKTDVEYESDEKARGTRLDGLDLVDTWKSFKPRYKHSHFIWNRTELLTLDPHNVDYLLGLFEPGDMQYELNRNNVTDPSLSEMVVVAIQILRKNPKGFFLLVEGGRIDHGHHEGKAKQALHEAVEMDRAIGQAGSLTSSEDTLTVVTADHSHVFTFGGYTPRGNSIFGLAPMLSDTDKKPFTAILYGNGPGYKVVGGERENVSMVDYAHNNYQAQSAVPLRHETHGGEDVAVFSKGPMAHLLHGVHEQNYVPHVMAYAACIGANLGHCAPASS
